PubChem BioAssay AID1224830, NIAID – 2016

Assay: 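Genes whose knock-down alters the TNF-alpha reporter response to LPS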 (primary screen)
Cells: human THP-1 monocytic leukaemia cells, TNF dual-luciferase reporter clone, PMA-differentiated to macrophage-like cells
Knock-down reagent: siRNA pool against human genes, 50 nM
Timing: LPS for 4 h, given about 3 days after siRNA transfection
Conditions: bacterial LPS (TLR4 ligand), 10 ng/ml
Measurement: 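TNF firefly reporter luminescence divided by renilla, normalised to the plate median, then turned into a robust z-score for each replicate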
Scale: TNF reporter robust z-score: higher = stronger TNF reporter response to LPS
Call rule: 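a well is active when its z-score exceeds 2.8 or falls below -1.5; control wells carry no call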
Shown is an unselected part of about 18,000 deposited reagents. About 2,900 of them (16%) were called active. 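Calls are made per well; low scores hint the gene aids the LPS response, high scores that it dampens it.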 Repeated entries: four replicate wells of each siRNA pool.

PIP4K2C
- TNF reporter robust z-score: 1.67
- Outcome: inactive

PIP4K2C
- TNF reporter robust z-score: 1.69
- Outcome: inactive

PIP4K2C
- TNF reporter robust z-score: 2.55
- Outcome: inactive

PIP4K2C
- TNF reporter robust z-score: 2.18
- Outcome: inactive

TLE2
- TNF reporter robust z-score: -0.9
- Outcome: inactive

TLE2
- TNF reporter robust z-score: -1.29
- Outcome: inactive

TLE2
- TNF reporter robust z-score: -0.94
- Outcome: inactive

FAM218A
- TNF reporter robust z-score: 1.65
- Outcome: inactive

FAM218A
- TNF reporter robust z-score: -0.18
- Outcome: inactive

FAM218A
- TNF reporter robust z-score: 0.52
- Outcome: inactive

FAM218A
- TNF reporter robust z-score: 0.83
- Outcome: inactive

LINC03040
- TNF reporter robust z-score: -0.44
- Outcome: inactive

LINC03040
- TNF reporter robust z-score: 0.14
- Outcome: inactive

LINC03040
- TNF reporter robust z-score: -0.26
- Outcome: inactive

LINC03040
- TNF reporter robust z-score: -0.27
- Outcome: inactive

Laid out differently: entries from further up
{"gene knocked down":"TLE2","TNF reporter robust z-score":-0.94,"Outcome":"inactive"}
{"gene knocked down":"FAM218A","TNF reporter robust z-score":1.65,"Outcome":"inactive"}

The list goes on:
LRFN4
- TNF reporter robust z-score: 1.24
- Outcome: inactive

LRFN4
- TNF reporter robust z-score: 1
- Outcome: inactive

LRFN4
- TNF reporter robust z-score: 0.18
- Outcome: inactive

LRFN4
- TNF reporter robust z-score: 1.66
- Outcome: inactive

PILRB
- TNF reporter robust z-score: 0.09
- Outcome: inactive

PILRB
- TNF reporter robust z-score: 0.06
- Outcome: inactive

PILRB
- TNF reporter robust z-score: 0.51
- Outcome: inactive

PILRB
- TNF reporter robust z-score: 0.33
- Outcome: inactive

IL5RA
- TNF reporter robust z-score: 2.57
- Outcome: inactive

IL5RA
- TNF reporter robust z-score: 2.73
- Outcome: inactive

IL5RA
- TNF reporter robust z-score: 2.24
- Outcome: inactive

IL5RA
- TNF reporter robust z-score: 1.52
- Outcome: inactive

CCL17
- TNF reporter robust z-score: 0.34
- Outcome: inactive

CCL17
- TNF reporter robust z-score: 0.15
- Outcome: inactive

CCL17
- TNF reporter robust z-score: 0.14
- Outcome: inactive

CCL17
- TNF reporter robust z-score: 2.27
- Outcome: inactive

TAAR6
- TNF reporter robust z-score: -0.48
- Outcome: inactive

TAAR6
- TNF reporter robust z-score: -0.43
- Outcome: inactive

TAAR6
- TNF reporter robust z-score: -0.55
- Outcome: inactive

TAAR6
- TNF reporter robust z-score: 0.4
- Outcome: inactive

RAB8A
- TNF reporter robust z-score: -0.4
- Outcome: inactive

RAB8A
- TNF reporter robust z-score: 0.5
- Outcome: inactive

RAB8A
- TNF reporter robust z-score: -0.66
- Outcome: inactive

RAB8A
- TNF reporter robust z-score: 1.02
- Outcome: inactive

DOK1
- TNF reporter robust z-score: 0.64
- Outcome: inactive

DOK1
- TNF reporter robust z-score: -0.31
- Outcome: inactive

DOK1
- TNF reporter robust z-score: -0.29
- Outcome: inactive

DOK1
- TNF reporter robust z-score: 0.44
- Outcome: inactive

SSBP2
- TNF reporter robust z-score: -0.04
- Outcome: inactive

SSBP2
- TNF reporter robust z-score: -0.36
- Outcome: inactive

SSBP2
- TNF reporter robust z-score: -0.16
- Outcome: inactive

SSBP2
- TNF reporter robust z-score: -0.74
- Outcome: inactive
